At least one peptide structure holds a part that was inferred or is arguable (an end, a ring closure or a residue). Where no end group is shown, it is not given here.
Tested on: ozone-induced neutrophil migration
Test: Mouse model of ozone-induced COPD: neutrophil migration, IL-6, KC, IFNγ in BAL fluid
Type: in vivo
Details: Balb/C mice; intratracheal pretreatment with 25 μL of 1.0 mM peptide in PBS 30 minutes before 2 hours ozone exposure; relative to control group treated with PBS alone
Protocol: Ten-week-old Balb/C female mice were obtained from Charles River laboratories and housed under NIH guidelines in groups of 5 per cage. The animals received standard rodent diet and filtered water ad libitum. Three treatment groups of mice, 5 animals in each group, were each anesthetized by intraperitoneal injection of Ketamine (100 mg/kg) and Xylazine (20 mg/kg) and then pretreated by intratracheal administration with 25 μL of either PBS alone, or a solution of 1.0 mM MANS peptide in PBS, or a solution of a 1.0 mM of an acetylated MANS-fragment-peptide Ac-[…] designated as acetylated SEQ ID NO: 106 in PBS. […] The animals were exposed to ozone for 2 hours (at ozone concentrations of 1-10 ppm by a slightly modified method described by Haddad et al, 1995. (Haddad E-B, Salmon M, Sun J, Liu S, Das A, Adcock I, Barnes P J, and Chung K F, FEBS Letters, 363:285-288, 1995). The ozone was generated using an ozone generator apparatus model OL80F/B from OzoneLab, Burton, British Columbia, Canada. Ozone concentration was continuously monitored using a Teledyne Photometric 03 Analyzer (model 400E, Teledyne Instruments, City of Industry, CA). Two additional groups of mice, each without any pretreatment, were either exposed to ozone under the same conditions or exposed to forced air under conditions similar to the ozone treatment group but absent ozone. […]

Ac-GAQFSKTAAK [Ac-SEQ ID NO: 106]
% Inhibition of neutrophil migration into BAL fluid: 81.2%

— patent US20230293629A1, “METHODS FOR ATTENUATING RELEASE OF INFLAMMATORY MEDIATORS AND PEPTIDES USEFUL THEREIN” (BIOMARCK PHARMACEUTICALS LTD., priority 2006, published 2023)
